Test results: the supplement of paper PMC10849652
Some of the results follow.

Sequences of proteins named here, by UniProt entry; tags and fusion partners are left off. A change or cut given only in a name is not applied to a line headed by its entry.
UniProt Q86UA6: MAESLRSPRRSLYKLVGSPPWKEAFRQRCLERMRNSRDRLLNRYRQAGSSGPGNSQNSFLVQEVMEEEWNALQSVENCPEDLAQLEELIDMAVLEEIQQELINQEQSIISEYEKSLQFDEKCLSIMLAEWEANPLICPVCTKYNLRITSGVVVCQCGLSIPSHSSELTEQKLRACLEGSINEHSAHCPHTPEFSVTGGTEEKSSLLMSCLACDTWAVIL
UniProt P78346: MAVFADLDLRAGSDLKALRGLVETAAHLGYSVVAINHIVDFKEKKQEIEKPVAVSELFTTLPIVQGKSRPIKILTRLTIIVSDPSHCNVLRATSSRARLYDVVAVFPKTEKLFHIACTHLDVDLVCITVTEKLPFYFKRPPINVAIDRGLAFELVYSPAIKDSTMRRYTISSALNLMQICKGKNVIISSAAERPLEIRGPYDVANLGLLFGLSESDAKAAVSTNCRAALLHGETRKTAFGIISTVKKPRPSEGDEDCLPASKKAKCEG
UniProt Q8N122, whole entry, looked up: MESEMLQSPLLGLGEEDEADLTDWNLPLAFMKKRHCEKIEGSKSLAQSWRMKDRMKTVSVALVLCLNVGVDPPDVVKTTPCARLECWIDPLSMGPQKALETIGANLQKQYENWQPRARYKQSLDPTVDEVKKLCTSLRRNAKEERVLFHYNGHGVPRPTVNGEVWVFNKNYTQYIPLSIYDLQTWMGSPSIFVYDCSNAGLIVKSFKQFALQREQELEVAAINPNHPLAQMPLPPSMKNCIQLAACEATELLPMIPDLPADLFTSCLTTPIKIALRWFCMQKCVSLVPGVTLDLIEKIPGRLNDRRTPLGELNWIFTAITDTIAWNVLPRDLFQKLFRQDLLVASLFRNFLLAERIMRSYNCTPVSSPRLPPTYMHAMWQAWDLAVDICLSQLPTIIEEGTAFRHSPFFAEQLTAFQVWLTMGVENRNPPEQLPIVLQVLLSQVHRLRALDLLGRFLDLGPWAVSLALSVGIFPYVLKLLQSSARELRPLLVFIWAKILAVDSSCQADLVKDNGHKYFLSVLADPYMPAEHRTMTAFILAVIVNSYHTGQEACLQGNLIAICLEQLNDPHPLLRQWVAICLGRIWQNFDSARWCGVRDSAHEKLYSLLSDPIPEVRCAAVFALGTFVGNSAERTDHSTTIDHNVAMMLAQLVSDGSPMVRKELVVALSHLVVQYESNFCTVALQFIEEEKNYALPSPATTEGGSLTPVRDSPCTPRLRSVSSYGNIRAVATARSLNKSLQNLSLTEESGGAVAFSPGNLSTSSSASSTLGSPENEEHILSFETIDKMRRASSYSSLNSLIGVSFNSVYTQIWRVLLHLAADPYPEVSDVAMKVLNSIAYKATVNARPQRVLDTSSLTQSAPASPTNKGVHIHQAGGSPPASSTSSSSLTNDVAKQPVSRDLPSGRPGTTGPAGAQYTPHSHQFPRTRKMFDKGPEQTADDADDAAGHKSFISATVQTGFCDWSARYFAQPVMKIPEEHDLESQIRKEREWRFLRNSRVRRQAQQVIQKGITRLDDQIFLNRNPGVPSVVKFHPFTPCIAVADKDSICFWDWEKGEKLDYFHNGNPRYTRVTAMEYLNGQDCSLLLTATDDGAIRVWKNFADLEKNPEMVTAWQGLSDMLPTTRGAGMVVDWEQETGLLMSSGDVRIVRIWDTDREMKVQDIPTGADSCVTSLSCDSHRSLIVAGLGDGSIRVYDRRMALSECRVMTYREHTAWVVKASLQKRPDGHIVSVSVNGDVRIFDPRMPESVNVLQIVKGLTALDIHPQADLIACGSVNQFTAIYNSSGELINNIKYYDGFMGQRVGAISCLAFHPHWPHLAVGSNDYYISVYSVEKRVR
UniProt Q9H633: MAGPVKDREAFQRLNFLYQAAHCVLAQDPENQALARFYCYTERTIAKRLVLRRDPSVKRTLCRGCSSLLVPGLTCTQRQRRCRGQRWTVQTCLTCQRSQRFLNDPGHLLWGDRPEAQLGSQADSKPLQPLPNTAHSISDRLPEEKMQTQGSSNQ
UniProt P35244: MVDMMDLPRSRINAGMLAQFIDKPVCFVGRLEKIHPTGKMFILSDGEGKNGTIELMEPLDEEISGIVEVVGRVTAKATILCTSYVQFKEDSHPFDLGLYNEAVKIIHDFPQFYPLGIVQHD
UniProt Q13464: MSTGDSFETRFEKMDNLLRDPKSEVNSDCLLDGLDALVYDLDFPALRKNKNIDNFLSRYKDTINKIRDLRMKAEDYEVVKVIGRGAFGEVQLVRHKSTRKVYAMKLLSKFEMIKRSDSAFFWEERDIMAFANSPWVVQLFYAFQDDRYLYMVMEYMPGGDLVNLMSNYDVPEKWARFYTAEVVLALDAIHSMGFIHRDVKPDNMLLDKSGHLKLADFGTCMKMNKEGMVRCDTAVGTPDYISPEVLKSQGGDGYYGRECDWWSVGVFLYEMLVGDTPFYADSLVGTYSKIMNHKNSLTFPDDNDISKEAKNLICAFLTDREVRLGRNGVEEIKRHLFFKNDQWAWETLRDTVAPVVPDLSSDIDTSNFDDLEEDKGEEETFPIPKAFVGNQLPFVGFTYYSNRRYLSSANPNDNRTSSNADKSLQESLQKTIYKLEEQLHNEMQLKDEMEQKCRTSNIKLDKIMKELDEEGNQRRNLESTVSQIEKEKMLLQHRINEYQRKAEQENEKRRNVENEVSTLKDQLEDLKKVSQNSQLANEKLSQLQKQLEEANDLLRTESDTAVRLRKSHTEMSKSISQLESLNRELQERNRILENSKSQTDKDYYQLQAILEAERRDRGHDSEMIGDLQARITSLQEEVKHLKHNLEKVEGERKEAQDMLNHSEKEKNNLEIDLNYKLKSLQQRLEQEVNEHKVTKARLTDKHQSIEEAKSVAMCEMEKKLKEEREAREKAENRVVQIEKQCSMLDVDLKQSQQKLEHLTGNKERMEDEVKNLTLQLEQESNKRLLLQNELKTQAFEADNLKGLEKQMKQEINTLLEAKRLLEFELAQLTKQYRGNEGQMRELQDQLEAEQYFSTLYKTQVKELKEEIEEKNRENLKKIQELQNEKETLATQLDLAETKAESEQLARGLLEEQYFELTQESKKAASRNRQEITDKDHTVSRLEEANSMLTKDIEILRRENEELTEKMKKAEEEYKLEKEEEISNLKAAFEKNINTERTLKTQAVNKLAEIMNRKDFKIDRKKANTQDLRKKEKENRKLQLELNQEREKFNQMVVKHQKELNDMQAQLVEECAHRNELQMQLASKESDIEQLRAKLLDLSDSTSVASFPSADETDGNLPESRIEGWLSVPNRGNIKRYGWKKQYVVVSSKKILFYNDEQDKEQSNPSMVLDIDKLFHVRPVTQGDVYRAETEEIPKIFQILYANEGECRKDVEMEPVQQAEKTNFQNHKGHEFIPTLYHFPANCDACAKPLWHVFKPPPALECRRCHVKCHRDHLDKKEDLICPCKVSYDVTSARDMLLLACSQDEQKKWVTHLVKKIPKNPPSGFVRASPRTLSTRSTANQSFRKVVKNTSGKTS
UniProt P31350, whole entry, looked up: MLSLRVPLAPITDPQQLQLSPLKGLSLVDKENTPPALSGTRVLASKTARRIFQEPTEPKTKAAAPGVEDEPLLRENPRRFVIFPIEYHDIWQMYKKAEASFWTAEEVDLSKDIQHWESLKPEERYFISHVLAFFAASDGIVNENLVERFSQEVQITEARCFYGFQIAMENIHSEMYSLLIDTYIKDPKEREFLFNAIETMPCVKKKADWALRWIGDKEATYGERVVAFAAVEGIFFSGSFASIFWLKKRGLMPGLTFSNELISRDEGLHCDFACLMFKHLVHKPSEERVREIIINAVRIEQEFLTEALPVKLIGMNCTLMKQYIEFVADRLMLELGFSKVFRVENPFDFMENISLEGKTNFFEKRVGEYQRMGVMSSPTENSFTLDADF
UniProt Q9UBF6, whole entry, looked up: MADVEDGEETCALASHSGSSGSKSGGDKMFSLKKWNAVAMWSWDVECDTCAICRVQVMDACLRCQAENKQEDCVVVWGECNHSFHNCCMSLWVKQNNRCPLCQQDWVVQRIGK
UniProt P27694, whole entry, looked up: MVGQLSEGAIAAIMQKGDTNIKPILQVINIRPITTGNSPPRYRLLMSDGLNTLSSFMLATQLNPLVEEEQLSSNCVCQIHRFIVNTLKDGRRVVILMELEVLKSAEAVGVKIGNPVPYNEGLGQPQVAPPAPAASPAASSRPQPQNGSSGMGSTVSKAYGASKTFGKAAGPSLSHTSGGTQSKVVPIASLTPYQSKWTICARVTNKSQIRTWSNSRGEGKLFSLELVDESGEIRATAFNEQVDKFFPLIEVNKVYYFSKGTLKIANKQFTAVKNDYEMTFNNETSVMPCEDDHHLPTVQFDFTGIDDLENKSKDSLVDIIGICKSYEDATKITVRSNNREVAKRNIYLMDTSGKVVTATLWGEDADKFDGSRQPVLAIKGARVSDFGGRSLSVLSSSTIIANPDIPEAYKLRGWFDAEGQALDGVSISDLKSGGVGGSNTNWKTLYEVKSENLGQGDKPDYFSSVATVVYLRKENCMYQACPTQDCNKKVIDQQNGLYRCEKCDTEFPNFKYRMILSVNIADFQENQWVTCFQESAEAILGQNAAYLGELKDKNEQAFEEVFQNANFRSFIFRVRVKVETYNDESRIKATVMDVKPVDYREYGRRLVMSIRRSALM
UniProt P04843: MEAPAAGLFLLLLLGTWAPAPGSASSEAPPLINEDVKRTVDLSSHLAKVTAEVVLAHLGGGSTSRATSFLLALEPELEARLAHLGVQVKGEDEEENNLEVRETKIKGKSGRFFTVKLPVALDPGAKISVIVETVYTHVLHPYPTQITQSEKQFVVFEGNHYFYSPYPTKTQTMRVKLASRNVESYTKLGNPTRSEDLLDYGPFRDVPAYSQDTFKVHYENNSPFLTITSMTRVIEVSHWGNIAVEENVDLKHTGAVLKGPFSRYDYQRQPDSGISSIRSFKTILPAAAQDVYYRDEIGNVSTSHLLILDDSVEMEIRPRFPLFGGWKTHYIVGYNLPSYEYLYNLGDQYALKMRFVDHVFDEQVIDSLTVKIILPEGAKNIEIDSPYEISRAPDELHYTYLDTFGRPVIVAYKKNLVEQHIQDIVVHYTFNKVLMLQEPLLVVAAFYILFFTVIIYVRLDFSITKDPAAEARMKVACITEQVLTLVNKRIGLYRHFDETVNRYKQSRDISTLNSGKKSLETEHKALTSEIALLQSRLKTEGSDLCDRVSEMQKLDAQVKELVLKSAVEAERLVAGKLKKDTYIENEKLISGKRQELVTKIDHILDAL
UniProt P23921: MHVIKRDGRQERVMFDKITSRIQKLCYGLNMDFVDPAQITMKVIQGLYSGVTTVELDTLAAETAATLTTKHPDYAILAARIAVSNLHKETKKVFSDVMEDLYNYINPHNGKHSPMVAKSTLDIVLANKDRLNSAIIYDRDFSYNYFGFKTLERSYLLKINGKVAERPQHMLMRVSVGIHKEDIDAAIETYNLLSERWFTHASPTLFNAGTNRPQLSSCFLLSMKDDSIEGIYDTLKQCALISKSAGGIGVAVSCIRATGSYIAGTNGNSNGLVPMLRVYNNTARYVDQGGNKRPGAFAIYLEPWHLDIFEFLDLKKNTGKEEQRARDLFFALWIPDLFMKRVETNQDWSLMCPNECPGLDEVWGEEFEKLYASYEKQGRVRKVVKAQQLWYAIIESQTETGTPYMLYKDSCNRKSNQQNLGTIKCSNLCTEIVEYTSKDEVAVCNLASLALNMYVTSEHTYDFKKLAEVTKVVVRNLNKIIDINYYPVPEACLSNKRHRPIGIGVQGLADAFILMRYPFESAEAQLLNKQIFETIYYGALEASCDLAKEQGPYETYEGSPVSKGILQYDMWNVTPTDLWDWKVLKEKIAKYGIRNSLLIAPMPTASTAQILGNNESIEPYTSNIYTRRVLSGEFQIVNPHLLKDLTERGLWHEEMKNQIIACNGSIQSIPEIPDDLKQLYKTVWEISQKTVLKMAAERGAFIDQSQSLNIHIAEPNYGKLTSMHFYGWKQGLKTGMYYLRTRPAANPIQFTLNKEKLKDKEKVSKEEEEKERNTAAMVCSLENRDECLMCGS
UniProt Q86WX3: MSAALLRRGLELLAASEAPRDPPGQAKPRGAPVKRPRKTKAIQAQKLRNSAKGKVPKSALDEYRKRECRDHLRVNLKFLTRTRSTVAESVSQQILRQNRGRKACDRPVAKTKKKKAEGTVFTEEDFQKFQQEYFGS
UniProt P62070: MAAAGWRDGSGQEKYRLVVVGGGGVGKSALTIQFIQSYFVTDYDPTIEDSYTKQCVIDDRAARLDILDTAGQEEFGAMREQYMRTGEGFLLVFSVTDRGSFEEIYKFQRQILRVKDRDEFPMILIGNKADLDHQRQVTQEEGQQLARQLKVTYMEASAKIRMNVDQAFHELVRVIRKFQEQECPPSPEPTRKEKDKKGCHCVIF
UniProt P15927: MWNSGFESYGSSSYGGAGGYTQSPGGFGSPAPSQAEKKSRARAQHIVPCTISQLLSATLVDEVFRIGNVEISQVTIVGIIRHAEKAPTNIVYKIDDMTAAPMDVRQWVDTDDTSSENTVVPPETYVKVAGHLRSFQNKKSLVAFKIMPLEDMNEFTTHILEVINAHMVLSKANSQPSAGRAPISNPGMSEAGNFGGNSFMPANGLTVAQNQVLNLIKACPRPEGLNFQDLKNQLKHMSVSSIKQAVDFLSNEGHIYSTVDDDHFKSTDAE

Tests used:
Assay in all cases: log2 fold change, soluble protein after heating vs DMSO (PISA); higher = thermal stabilisation; K562 cells, 10 uM, 30 min; active = over 0.2 and 3.5 SD of the protein, either way, in both replicates (recomputed)
[1] = compound: C1=CC=C(C=C1)[C@H](COC2=CC3=C(C=C2)NC(=O)N3)NC(=O)C4=CC=CN(C4=O)CC5=CC(=C(C=C5)F)F
How it was run: (§1)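 K562 cells at 2×10^6 cells/mL were given 10 μM compound for 30 min. Aliquots then went through 3 min of heating across 48°C-58°C, were pooled, and were extracted in PBS with 0.5% NP-40 at 4°C, and the supernatant after 21,000xg for 90 min was quantified by TMTpro 16plex LC-MS/MS with channel sums equalised. Thermal stability relative to control samples, from duplicates, is given as log2 fold change.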

[2] = compound: CC1=C(SC2=C1C(=N[C@H](C3=NN=C(N32)C)CC(=O)N)C4=CC=C(C=C4)Cl)C
How it was run: as §1

[3] = compound: CC1=C2C(=CC=C1)N=C(N(C2=O)C3=CC=CC=C3C)CN4C=NC5=C(N=CN=C54)N
How it was run: as §1

[4] = compound: Cc1sc2c(c1C)C(c1ccc(Cl)cc1)=N[C@@H](CC(=O)OC(C)(C)C)c1nnc(C)n1-2
How it was run: as §1

[5] = compound: c1ccc([C@@H]2C[C@H]2NC2CCNCC2)cc1
How it was run: as §1

Measured: log2 fold change

RPL17 isoform 3 (UniProt P18621)
inactive: [1] 0.27 | [2] -0.392 | [3] -0.386 | [4] 0.239 | [5] 0

RPL36A (UniProt P83881)
inactive: [1] 0.198 | [2] -0.286 | [3] -0.323 | [4] 0.218 | [5] 0

RPL19 (UniProt P84098)
inactive: [1] 0.128 | [2] -0.311 | [3] -0.428 | [4] 0.208 | [5] -0.009

RPS3 (UniProt P23396)
inactive: [1] 0.055 | [2] -0.118 | [3] -0.127 | [4] 0.083 | [5] 0.015

RPAIN isoform 8 (UniProt Q86UA6)
inactive: [1] 0.026 | [2] 0.057 | [3] 0.046 | [4] -0.038 | [5] 0.006

RPP30 isoform 2 (UniProt P78346)
inactive: [1] 0.046 | [2] -0.03 | [3] -0.002 | [4] 0.111 | [5] 0.05

RPL32 (UniProt P62910)
inactive: [1] 0.197 | [2] -0.439 | [3] -0.556 | [4] 0.249 | [5] -0.002

RPL26 (UniProt P61254)
inactive: [1] 0.232 | [2] -0.424 | [3] -0.863 | [4] 0.155 | [5] -0.023

RPL39P5 (UniProt Q59GN2)
inactive: [1] 0.215 | [2] -0.438 | [3] -0.263 | [4] 0.261 | [5] 0.028

RPL10 (UniProt P27635)
inactive: [1] 0.14 | [2] -0.401 | [3] -0.447 | [4] 0.245 | [5] 0

RPL27A (UniProt P46776)
inactive: [1] 0.174 | [2] -0.473 | [3] -0.496 | [4] 0.337 | [5] 0

RPL22 (UniProt P35268)
inactive: [1] 0.099 | [2] -0.175 | [3] -0.109 | [4] 0.13 | [5] -0.019

RPL37A (UniProt P61513)
inactive: [1] 0.261 | [2] -0.52 | [3] -0.641 | [4] 0.274 | [5] -0.068

RPL24 (UniProt P83731)
inactive: [1] 0.098 | [2] -0.37 | [3] -0.406 | [4] 0.227 | [5] 0

RPTOR (UniProt Q8N122)
inactive: [1] -0.022 | [2] -0.015 | [3] 0.095 | [4] -0.02 | [5] 0.032

RPL38 (UniProt P63173)
inactive: [1] 0.012 | [2] -0.03 | [3] -0.046 | [4] 0.053 | [5] 0.013

RPS21 (UniProt P63220)
inactive: [1] -0.008 | [2] -0.047 | [3] 0.028 | [4] 0.017 | [5] 0.02

RPP21 isoform 4 (UniProt Q9H633)
inactive: [1] -0.004 | [2] 0.099 | [3] 0.099 | [4] 0.037 | [5] -0.054

RPL36 (UniProt Q9Y3U8)
inactive: [1] 0.226 | [2] -0.461 | [3] -0.605 | [4] 0.295 | [5] -0.001

RPL15 (UniProt P61313)
inactive: [1] 0.297 | [2] -0.647 | [3] -0.728 | [4] 0.385 | [5] 0

RNH1 (UniProt P13489)
inactive: [1] -0.055 | [2] 0.025 | [3] 0.068 | [4] -0.04 | [5] -0.032

RPL31 (UniProt P62899)
inactive: [1] 0.106 | [2] -0.241 | [3] -0.22 | [4] 0.202 | [5] 0

RPA3 (UniProt P35244)
inactive: [1] 0.008 | [2] 0.09 | [3] -0.055 | [4] -0.146 | [5] -0.03

ROCK1 (UniProt Q13464)
inactive: [1] -0.017 | [2] 0.027 | [3] 0.032 | [4] -0.018 | [5] -0.015

RPS8 (UniProt P62241)
inactive: [1] 0.163 | [2] -0.268 | [3] -0.302 | [4] 0.156 | [5] 0

RRM2 isoform 2 (UniProt P31350)
inactive: [1] -0.012 | [2] 0.026 | [3] -0.018 | [4] -0.033 | [5] -0.002

RPS14 (UniProt P62263)
inactive: [1] 0.041 | [2] -0.162 | [3] -0.238 | [4] 0.078 | [5] -0.036

RNF7 (UniProt Q9UBF6)
inactive: [1] -0.062 | [2] -0.021 | [3] 0.009 | [4] -0.024 | [5] 0.005

RPA1 (UniProt P27694)
inactive: [1] -0.032 | [2] 0.025 | [3] 0.087 | [4] -0.047 | [5] 0.011

RPN1 (UniProt P04843)
inactive: [1] -0.01 | [2] 0.052 | [3] 0.019 | [4] -0.016 | [5] 0.002

RPS26 (UniProt P62854)
inactive: [1] 0.177 | [2] -0.413 | [3] -0.37 | [4] 0.21 | [5] 0

RPLP0 (UniProt P05388)
inactive: [1] 0.243 | [2] -0.523 | [3] -0.573 | [4] 0.281 | [5] 0

RPL21 (UniProt P46778)
inactive: [1] 0.277 | [2] -0.597 | [3] -0.71 | [4] 0.373 | [5] 0.006

RPL13A (UniProt P40429)
inactive: [1] 0.204 | [2] -0.54 | [3] -0.741 | [4] 0.335 | [5] 0

RPS27A (UniProt P62979)
inactive: [1] 0.076 | [2] -0.111 | [3] -0.281 | [4] 0.108 | [5] -0.025

RPL26L1 (UniProt Q9UNX3)
inactive: [1] 0.094 | [2] -0.24 | [3] -0.335 | [4] 0.19 | [5] -0.01

RPS11 (UniProt P62280)
inactive: [1] 0.12 | [2] -0.292 | [3] -0.285 | [4] 0.18 | [5] 0

RRM1 (UniProt P23921)
inactive: [1] -0.011 | [2] 0.029 | [3] -0.033 | [4] -0.023 | [5] 0.011

RPL18 (UniProt Q07020)
inactive: [1] 0.268 | [2] -0.648 | [3] -0.673 | [4] 0.399 | [5] 0.003

Taken from above (3 entries):
RNF7 (UniProt Q9UBF6)
inactive: [1] -0.062 | [2] -0.021 | [3] 0.009 | [4] -0.024 | [5] 0.005

RPA1 (UniProt P27694)
inactive: [1] -0.032 | [2] 0.025 | [3] 0.087 | [4] -0.047 | [5] 0.011

RPN1 (UniProt P04843)
inactive: [1] -0.01 | [2] 0.052 | [3] 0.019 | [4] -0.016 | [5] 0.002

Additional results follow:

RO60 (UniProt P10155)
inactive: [1] 0.057 | [2] -0.002 | [3] 0.03 | [4] 0.026 | [5] 0.033

RPS19BP1 (UniProt Q86WX3)
inactive: [1] 0.007 | [2] -0.258 | [3] -0.118 | [4] 0.111 | [5] 0.004

RPS27L (UniProt Q71UM5)
inactive: [1] 0.038 | [2] -0.035 | [3] 0.007 | [4] 0.084 | [5] -0.124

RPL6 (UniProt Q02878)
inactive: [1] 0.281 | [2] -0.411 | [3] -0.6 | [4] 0.326 | [5] -0.008

RPP40 (UniProt O75818)
inactive: [1] 0.027 | [2] -0.023 | [3] -0.084 | [4] 0.011 | [5] 0.002

RPL7A (UniProt P62424)
inactive: [1] 0.3 | [2] -0.5 | [3] -0.652 | [4] 0.314 | [5] -0.004

RRAS2 isoform 4 (UniProt P62070)
inactive: [1] 0.045 | [2] -0.017 | [3] -0.062 | [4] -0.03 | [5] 0.011

RPS4X (UniProt P62701)
inactive: [1] 0.105 | [2] -0.255 | [3] -0.232 | [4] 0.148 | [5] 0.001

RPS9 (UniProt P46781)
inactive: [1] 0.073 | [2] -0.19 | [3] -0.24 | [4] 0.134 | [5] 0

RPS3A (UniProt P61247)
inactive: [1] 0.053 | [2] -0.162 | [3] -0.139 | [4] 0.099 | [5] 0

RPA2 isoform 3 (UniProt P15927)
inactive: [1] 0 | [2] 0.083 | [3] 0.045 | [4] 0.022 | [5] 0.008

RPL35 (UniProt P42766)
inactive: [1] 0.203 | [2] -0.358 | [3] -0.356 | [4] 0.294 | [5] 0

RPS6KB2 (UniProt Q9UBS0)
inactive: [2] -0.017 | [4] 0.229 | [5] 0.167

RPL37 (UniProt P61927)
inactive: [1] 0.092 | [2] -0.429 | [3] -0.248 | [4] 0.2 | [5] 0

RPSA (UniProt P08865)
inactive: [1] 0.011 | [2] -0.024 | [3] 0.012 | [4] 0.039 | [5] 0.002

RPL3 (UniProt P39023)
inactive: [1] 0.274 | [2] -0.521 | [3] -0.601 | [4] 0.358 | [5] -0.001

ROMO1 (UniProt P60602)
inactive: [1] 0.045 | [2] -0.061 | [4] 0.172 | [5] 0.082
